Assay results as given in PubChem BioAssay AID248 (DTP/NCI, 2004).
The list shows only some results of the screen, not a fair sample: it is rich in T/C values a quarter to a half above the control, in often repeated tests (any T/C) and in doses without a T/C. Further doses and runs are listed elsewhere. T/C: endpoint of the treated group in % of that of the vehicle group. Some doses have a count of surviving animals in place of a T/C: the source files T/C as zero there, which appears to mark a toxic dose or a test without result, not a measured value. Some survivor counts are full or nearly so, which does not show that the dose was tolerated: survival well below the control is almost never listed, so the zero probably covers shortened survival too. Counts of survivors are from the toxicity check (mostly the fifth day) where no day follows; animals may have died later. Schedule codes are those of the source, read here as Q, the interval in days (D) or hours (H), X, the number of doses. Some schedules carry Z or #; the key to these is not given. Where survival is the endpoint, the PubChem record calls one and a half times the control and up active, and a quarter to a half above the control has no call in these data; cut-offs in other NCI protocols can differ. Some T/C values carry the count of animals alive at the toxicity check (mostly the fifth day); without a count, all were alive then.

Tested on: L1210 leukemia ip in BDF1 mice, survival T/C
Test: NCI In Vivo Anticancer Drug Screen. Data for tumor model L1210 Leukemia (intraperitoneal) in B6D2F1 (BDF1) mice
Settings: T/C endpoint: mean survival time, higher T/C = longer survival
[1] = dose: 25.0 mg/kg/injection, schedule: Q01DX009 (ip), vehicle: Klucel (hydroxypropylcellulose) (HPC)
[2] = dose: 50.0 mg/kg/injection, schedule: Q01DX009 (ip), vehicle: Klucel (hydroxypropylcellulose) (HPC)
[3] = dose: 100.0 mg/kg/injection, schedule: Q01DX001 (ip), vehicle: saline
[4] = dose: 200.0 mg/kg/injection, schedule: Q01DX001 (ip), vehicle: saline
[5] = dose: 400.0 mg/kg/injection, schedule: Q01DX001 (ip), vehicle: saline
[6] = dose: 400.0 mg/kg/injection, schedule: Q04DX002 (ip), vehicle: Klucel (hydroxypropylcellulose) (HPC)
[7] = dose: 400.0 mg/kg/injection, schedule: Q04DX003 (ip), vehicle: Klucel (hydroxypropylcellulose) (HPC)

## N#CSCC(=O)c1ccccc1
[1]
  survivor count: 2 of 6
[2]
  survivor count: 2 of 6
[3]
  survivor count: 1 of 6
dose: 100.0 mg/kg/injection, schedule: Q01DX009 (ip), vehicle: Klucel (hydroxypropylcellulose) (HPC)
  survivor count: 2 of 6
[4]
  survivor count: 0 of 6
[5]
  survivor count: 0 of 6

## NC(=S)N/N=C\c1ncnc2nc[nH]c12
dose: 1.25 mg/kg/injection, schedule: Q01DX009 (ip), vehicle: carboxymethylcellulose (CMC)
  T/C: 128 % of control
dose: 2.0 mg/kg/injection, schedule: Q03HX024 (ip), vehicle: saline
  T/C: 132 % of control
dose: 2.5 mg/kg/injection, schedule: Q01DX009 (ip), vehicle: carboxymethylcellulose (CMC)
  T/C: 125 % of control
dose: 4.0 mg/kg/injection, schedule: Q03HX024 (ip), vehicle: saline
  T/C: 142 % of control
dose: 5.0 mg/kg/injection, schedule: Q01DX009 (ip), vehicle: carboxymethylcellulose (CMC)
  T/C: 126 % of control
dose: 5.0 mg/kg/injection, schedule: Q01DX009 (ip), vehicle: saline
  T/C: 127 % of control
dose: 7.0 mg/kg/injection, schedule: Q01DX009 (ip), vehicle: carboxymethylcellulose (CMC)
  T/C: 128 % of control
dose: 7.0 mg/kg/injection, schedule: Q01DX009 (ip), vehicle: saline
  T/C: 127 % of control
dose: 10.0 mg/kg/injection, schedule: Q01DX009 (ip), vehicle: carboxymethylcellulose (CMC)
  T/C: 128 % of control
dose: 10.0 mg/kg/injection, schedule: Q01DX009 (ip), vehicle: saline
  T/C: 136 % of control
dose: 15.0 mg/kg/injection, schedule: Q01DX009 (ip), vehicle: carboxymethylcellulose (CMC)
  T/C: 134 % of control
dose: 15.0 mg/kg/injection, schedule: Q01DX009 (ip), vehicle: saline
  T/C: 127 % of control
dose: 30.0 mg/kg/injection, schedule: Q01DX009 (ip), vehicle: carboxymethylcellulose (CMC)
  survivor count: 1 of 6
dose: 40.0 mg/kg/injection, schedule: Q01DX001 (ip), vehicle: saline
  survivor count: 2 of 6
dose: 60.0 mg/kg/injection, schedule: Q01DX009 (ip), vehicle: carboxymethylcellulose (CMC)
  survivor count: 0 of 6
dose: 80.0 mg/kg/injection, schedule: Q01DX001 (ip), vehicle: saline
  survivor count: 0 of 6
[3]
  survivor count: 0 of 6
[4]
  survivor count: 0 of 6
[5]
  survivor count: 0 of 6

## ClCCN(CCCl)c1ccc(/C=C\c2ccnc3ccccc23)cc1
dose: 100.0 mg/kg/injection, schedule: Q01DX009 (ip), vehicle: other
  survivor count: 6 of 6
dose: 200.0 mg/kg/injection, schedule: Q01DX009 (ip), vehicle: carboxymethylcellulose (CMC)
  survivor count: 6 of 6
dose: 400.0 mg/kg/injection, schedule: Q01DX009 (ip), vehicle: carboxymethylcellulose (CMC)
  survivor count: 6 of 6
dose: 400.0 mg/kg/injection, schedule: Q01DX009 (ip), vehicle: other
  survivor count: 5 of 6

## CC(C)(CBr)C(=O)N1CCN(C(=O)C(C)(C)CBr)CC1
dose: 15.0 mg/kg/injection, schedule: Q01DX Z (ip), vehicle: methylcellulose (MC)
  T/C: 130 % of control [5 of 6 alive]
dose: 21.0 mg/kg/injection, schedule: Q01DX Z (ip), vehicle: carboxymethylcellulose (CMC)
  T/C: 134 % of control [7 of 8 alive]
dose: 35.0 mg/kg/injection, schedule: Q01DX Z (ip), vehicle: methylcellulose (MC)
  T/C: 130 % of control
dose: 42.0 mg/kg/injection, schedule: Q01DX Z (ip), vehicle: carboxymethylcellulose (CMC)
  survivor count: 2 of 8
dose: 63.0 mg/kg/injection, schedule: Q01DX Z (ip), vehicle: carboxymethylcellulose (CMC)
  survivor count: 0 of 8
dose: 102.0 mg/kg/injection, schedule: Q01DX Z (ip), vehicle: methylcellulose (MC)
  survivor count: 6 of 6
dose: 153.0 mg/kg/injection, schedule: Q01DX Z (ip), vehicle: methylcellulose (MC)
  survivor count: 5 of 6

## CCCCCC(=O)Oc1c(C(C)CC)cc([N+](=O)[O-])cc1[N+](=O)[O-] (configuration not stated)
dose: 50.0 mg/kg/injection, schedule: Q04DX002 (ip), vehicle: saline with Tween-80
  survivor count: 2 of 3
dose: 100.0 mg/kg/injection, schedule: Q04DX002 (ip), vehicle: saline with Tween-80
  survivor count: 0 of 3
dose: 200.0 mg/kg/injection, schedule: Q04DX002 (ip), vehicle: saline with Tween-80
  survivor count: 0 of 3
dose: 400.0 mg/kg/injection, schedule: Q04DX002 (ip), vehicle: saline with Tween-80
  survivor count: 0 of 3

## O=C1OC(/C=C/c2ccccc2)=NC/1=C\c1cccc([N+](=O)[O-])c1
dose: 100.0 mg/kg/injection, schedule: Q04DX002 (ip), vehicle: Klucel (hydroxypropylcellulose) (HPC)
  survivor count: 3 of 3
dose: 200.0 mg/kg/injection, schedule: Q04DX002 (ip), vehicle: Klucel (hydroxypropylcellulose) (HPC)
  survivor count: 3 of 3
[6]
  survivor count: 3 of 3

## CC(=O)OCC[N+](C)(C)CCCCCCCCCC[N+](C)(C)CCOC(C)=O
dose: 12.5 mg/kg/injection, schedule: Q01DX009 (ip), vehicle: saline
  survivor count: 2 of 6
[1]
  survivor count: 0 of 6
[2]
  survivor count: 0 of 6

## Cc1ccc2c([nH]1)c(C)cc1nc3ccccc3c12
dose: 100.0 mg/kg/injection, schedule: Q01DX001 (ip), vehicle: carboxymethylcellulose (CMC)
  survivor count: 2 of 4

## Cc1cccc(NC(=O)CCl)c1C
dose: 400.0 mg/kg/injection, schedule: Q01DX009 (ip), vehicle: Klucel (hydroxypropylcellulose) (HPC)
  survivor count: 0 of 6
[7]
  survivor count: 4 of 6

## O=C(NCC(O)CNC(=O)Nc1ccc(C2=NCC(O)CN2)cc1)Nc1ccc(C2=NCC(O)CN2)cc1 (configuration not stated)
dose: 200.0 mg/kg/injection, schedule: Q01DX Z (ip), vehicle: carboxymethylcellulose (CMC)
  survivor count: 0 of 6

## CC(=O)OC(CC[P+](c1ccccc1)(c1ccccc1)c1ccccc1)(C(=O)c1ccccc1)c1ccccc1 (configuration not stated)
dose: 200.0 mg/kg/injection, schedule: Q01DX001 (ip), vehicle: saline with Tween-80
  survivor count: 4 of 6
dose: 400.0 mg/kg/injection, schedule: Q01DX001 (ip), vehicle: saline with Tween-80
  survivor count: 0 of 6

## O=[N+]([O-])c1ccc([S][Pb]([c]2ccccc2)([c]2ccccc2)[c]2ccccc2)cc1
[6]
  survivor count: 1 of 3

## CN1OCC2CCCC(c3ccccc3)C21 (configuration not stated)
[7]
  survivor count: 0 of 6

## Cc1ccccc1N=P(c1ccccc1)(c1ccccc1)c1ccccc1
dose: 400.0 mg/kg/injection, schedule: Q01DX009 (ip), vehicle: gum acacia
  survivor count: 1 of 6

## CN(C)CCCN1CCC2(CC[Si](C)(C)CC2)C1
[4]
  survivor count: 4 of 4
[5]
  survivor count: 0 of 4
